These are yes or no findings as the source states them, for the method shown. Some results given as binding are weak or reduced against the parent protein; the word gives no strength.

The chains behind the UniProt entries cited, without tags or fusion partners. Residues count along the entry.
UniProt O75581, residues 20-1613: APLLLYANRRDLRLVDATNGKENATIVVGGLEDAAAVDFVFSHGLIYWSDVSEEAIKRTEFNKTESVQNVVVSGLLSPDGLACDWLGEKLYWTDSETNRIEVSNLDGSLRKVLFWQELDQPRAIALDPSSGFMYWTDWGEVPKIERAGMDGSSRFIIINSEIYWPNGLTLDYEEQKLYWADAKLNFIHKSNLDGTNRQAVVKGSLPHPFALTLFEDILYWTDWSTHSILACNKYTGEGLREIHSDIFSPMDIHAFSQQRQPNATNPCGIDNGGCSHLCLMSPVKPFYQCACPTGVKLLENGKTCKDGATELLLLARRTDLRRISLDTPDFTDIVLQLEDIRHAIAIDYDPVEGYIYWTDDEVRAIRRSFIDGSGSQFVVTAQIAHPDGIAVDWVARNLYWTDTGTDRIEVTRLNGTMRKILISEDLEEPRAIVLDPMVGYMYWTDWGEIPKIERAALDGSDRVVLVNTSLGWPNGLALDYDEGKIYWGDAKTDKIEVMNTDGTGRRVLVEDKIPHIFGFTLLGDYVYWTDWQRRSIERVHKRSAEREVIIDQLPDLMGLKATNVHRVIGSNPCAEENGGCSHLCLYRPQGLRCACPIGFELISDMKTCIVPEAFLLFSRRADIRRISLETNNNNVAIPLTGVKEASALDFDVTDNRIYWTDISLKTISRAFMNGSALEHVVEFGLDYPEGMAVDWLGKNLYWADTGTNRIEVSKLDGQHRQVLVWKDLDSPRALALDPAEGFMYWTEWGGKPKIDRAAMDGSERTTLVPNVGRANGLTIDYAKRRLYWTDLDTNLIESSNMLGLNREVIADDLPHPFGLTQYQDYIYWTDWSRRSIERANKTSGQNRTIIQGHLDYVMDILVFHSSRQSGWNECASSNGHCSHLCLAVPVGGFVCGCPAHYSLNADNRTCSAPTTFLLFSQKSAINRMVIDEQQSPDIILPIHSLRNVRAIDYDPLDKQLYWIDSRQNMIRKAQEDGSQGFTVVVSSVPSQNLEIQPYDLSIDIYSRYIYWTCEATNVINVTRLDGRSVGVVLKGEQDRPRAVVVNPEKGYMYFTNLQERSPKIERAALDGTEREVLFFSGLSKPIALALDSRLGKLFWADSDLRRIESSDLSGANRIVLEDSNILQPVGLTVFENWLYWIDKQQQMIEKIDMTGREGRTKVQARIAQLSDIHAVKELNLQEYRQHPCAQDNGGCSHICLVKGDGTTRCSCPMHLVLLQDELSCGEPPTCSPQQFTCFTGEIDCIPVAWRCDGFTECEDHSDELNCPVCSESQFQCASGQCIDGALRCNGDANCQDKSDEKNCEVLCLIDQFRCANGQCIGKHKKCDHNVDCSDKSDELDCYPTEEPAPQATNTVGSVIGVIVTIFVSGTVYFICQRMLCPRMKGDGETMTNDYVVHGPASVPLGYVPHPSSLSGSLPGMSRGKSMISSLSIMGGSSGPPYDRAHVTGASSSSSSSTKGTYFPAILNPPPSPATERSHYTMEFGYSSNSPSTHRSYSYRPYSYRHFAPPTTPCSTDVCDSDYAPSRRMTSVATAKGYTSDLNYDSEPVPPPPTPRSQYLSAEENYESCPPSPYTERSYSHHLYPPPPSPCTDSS
UniProt O35625: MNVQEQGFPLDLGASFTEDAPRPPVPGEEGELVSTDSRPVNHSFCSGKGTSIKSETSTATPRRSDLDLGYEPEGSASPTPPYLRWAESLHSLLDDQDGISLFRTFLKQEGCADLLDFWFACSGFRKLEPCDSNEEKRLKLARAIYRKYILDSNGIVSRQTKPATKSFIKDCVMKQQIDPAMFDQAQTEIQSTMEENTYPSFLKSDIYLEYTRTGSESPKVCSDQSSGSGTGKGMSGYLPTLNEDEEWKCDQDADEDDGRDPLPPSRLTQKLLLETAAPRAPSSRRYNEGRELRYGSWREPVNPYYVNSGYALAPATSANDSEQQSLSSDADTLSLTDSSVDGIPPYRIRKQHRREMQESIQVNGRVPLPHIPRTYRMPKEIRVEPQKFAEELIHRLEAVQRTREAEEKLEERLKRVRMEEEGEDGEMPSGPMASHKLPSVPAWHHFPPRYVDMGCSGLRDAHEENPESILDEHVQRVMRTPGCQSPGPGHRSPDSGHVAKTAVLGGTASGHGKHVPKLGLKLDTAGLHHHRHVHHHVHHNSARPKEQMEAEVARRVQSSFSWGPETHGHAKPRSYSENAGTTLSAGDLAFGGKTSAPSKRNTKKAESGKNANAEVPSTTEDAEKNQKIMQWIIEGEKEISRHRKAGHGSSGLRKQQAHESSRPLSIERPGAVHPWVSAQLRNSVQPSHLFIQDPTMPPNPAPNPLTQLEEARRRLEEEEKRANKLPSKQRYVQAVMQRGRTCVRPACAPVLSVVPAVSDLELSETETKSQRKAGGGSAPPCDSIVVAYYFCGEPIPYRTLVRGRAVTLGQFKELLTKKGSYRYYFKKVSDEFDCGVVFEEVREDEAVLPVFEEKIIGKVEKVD

The target of this assay is Lrp6 fused to an N-terminal mEGFP-tag (UniProt O75581). As to the kind of experiment: co-recruitment into biofunctional nanodot arrays.

Take “mTagBFP-Axin1 (from UniProt O35625 1-863)”: the binding entry is listed as “binds”.
The entry for “tandem mCherry-Axin1 fusion (from UniProt O35625 1-863)” is “binds”.

These data come from publication doi:10.1101/2022.06.11.495600.
